# The other results are listed elsewhere or left out.
# B1: PX14351B-bth-512-36-512 (Bacteroides thetaiotaomicron) (protein)
# chain: ASETQQWKTLEDTRSALMGVYGLTRAALADNNTHWICGDLRKGDFTVYKRSDLQAVSDNELNKPYDLLKKVSNWRRFYAVINAASVFMEKAPRTVELDRSYSEQNLKYDIAQVRALRAFAYFYMVRIWGDVPLVTYSYDNGTFPSMPRTDAQTVLSYAKAELLTAIEDLPYQYGTQTNLYYGSYGAQWQGKLFNKLSAYSVLAHICAWQGNYAEAETYSAFIIDHASEINAKYTSIADLTSETGLFYSNASVKGSRILGFNFAHNDNEATQSGHLEQLTLAYPLVQKSYPEIYISKDSLFSIFTNFDDLRFGIIDTIKYSSYYVQNLNEETPVFSKIKIIQDGSAKDNDFGVFGSSIVFTRLEDITLLRAEALCALNRSTEAVSYLNMIRTNRGLREVSFKKDFGNNRESLIAEIFEERRRELMGEGWRWYDLVRRQKLMKDNEAFLRLISSGGIYWPVSEDIITANSQIEQNEFWK
# Tests used:
# Experiment in all cases: glycan array binding signal (z-score within array); higher = stronger binding
# Conditions in all cases: glycan notation: IUPAC condensed, linker removed
# [1] = target: Fuc(a1-2)[GalNAc(a1-3)]Gal(b1-4)GlcNAc(b1-2)Man
# Summary of the method: (§1)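 The binding signal is a Z-score computed within each array and averaged over linkers. Arrays of the same protein sequence at different concentrations or buffers were also averaged together. Data originate from 3228 arrays in the Consortium for Functional Glycomics database, kept only where the protein sequence was available.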
# [2] = target: Fuc(a1-2)[GalNAc(a1-3)]Gal(b1-4)GlcNAc(b1-2)Man(a1-3)[Fuc(a1-2)[GalNAc(a1-3)]Gal(b1-4)GlcNAc(b1-2)Man(a1-6)]Man(b1-4)GlcNAc(b1-4)[Fuc(a1-6)]GlcNAc
# Summary of the method: as §1
# [3] = target: Fuc(a1-2)[GalNAc(a1-3)]Gal(b1-4)GlcNAc(b1-3)Gal(b1-4)GlcNAc
# Summary of the method: as §1
# [4] = target: Fuc(a1-2)[GalNAc(a1-3)]Gal(b1-4)GlcNAc(b1-3)Gal(b1-4)GlcNAc(b1-3)Gal(b1-4)GlcNAc
# Summary of the method: as §1
# [5] = target: Fuc(a1-2)[GalNAc(a1-3)]Gal(b1-4)GlcNAc(b1-3)GalNAc
# Summary of the method: as §1
# [6] = target: Fuc(a1-2)[GalNAc(a1-3)]Gal(b1-4)GlcNAc(b1-3)[Fuc(a1-2)[GalNAc(a1-3)]Gal(b1-4)GlcNAc(b1-6)]GalNAc
# Summary of the method: as §1
# [7] = target: Fuc(a1-2)[GalNAc(a1-3)]Gal(b1-4)GlcNAc(b1-6)GalNAc
# Summary of the method: as §1
# [8] = target: Fuc(a1-2)[GalNAc(a1-3)]Gal(b1-4)[Fuc(a1-3)]GlcNAc
# Summary of the method: as §1
# [9] = target: Fuc(a1-2)[GalNAc(a1-3)]Gal(b1-4)[Fuc(a1-3)]GlcNAc(b1-3)GalNAc
# Summary of the method: as §1
# [10] = target: Fuc(a1-2)[GalNAc(a1-4)]Gal(b1-4)GlcNAc
# Summary of the method: as §1
# [11] = target: Fuc(a1-2)[GalNAc(b1-3)]Gal
# Summary of the method: as §1
# [12] = target: Fuc(a1-3)GlcNAc
# Summary of the method: as §1
# [13] = target: Fuc(a1-3)[Gal(b1-4)]Glc6S
# Summary of the method: as §1
# [14] = target: Fuc(a1-3)[Gal(b1-4)]GlcNAc
# Summary of the method: as §1
# [15] = target: Fuc(a1-3)[Gal(b1-4)]GlcNAc(b1-2)Man
# Summary of the method: as §1
# [16] = target: Fuc(a1-3)[Gal(b1-4)]GlcNAc(b1-2)Man(a1-3)[Fuc(a1-3)[Gal(b1-4)]GlcNAc(b1-2)Man(a1-6)]Man(b1-4)GlcNAc(b1-4)GlcNAc
# Summary of the method: as §1
# [17] = target: Fuc(a1-3)[Gal(b1-4)]GlcNAc(b1-2)Man(a1-3)[Fuc(a1-3)[Gal(b1-4)]GlcNAc(b1-2)Man(a1-6)]Man(b1-4)GlcNAc(b1-4)[Fuc(a1-6)]GlcNAc
# Summary of the method: as §1
# [18] = target: Fuc(a1-3)[Gal(b1-4)]GlcNAc(b1-3)Gal(b1-3)[Fuc(a1-4)]GlcNAc
# Summary of the method: as §1
# [19] = target: Fuc(a1-3)[Gal(b1-4)]GlcNAc(b1-3)Gal(b1-4)[Fuc(a1-3)]GlcNAc
# Summary of the method: as §1
# [20] = target: Fuc(a1-3)[Gal(b1-4)]GlcNAc(b1-3)GalNAc
# Summary of the method: as §1
# [21] = target: Fuc(a1-3)[Gal(b1-4)]GlcNAc(b1-6)GalNAc
# Summary of the method: as §1
# [22] = target: Fuc(a1-3)[Gal(b1-4)]GlcNAc(b1-6)[Gal(b1-3)GlcNAc(b1-3)]Gal(b1-4)Glc
# Summary of the method: as §1
# [23] = target: Fuc(a1-3)[Gal(b1-4)]GlcNAc6S
# Summary of the method: as §1
# [24] = target: Fuc(a1-3)[Gal3S(b1-4)]Glc
# Summary of the method: as §1
# [25] = target: Fuc(a1-3)[Gal3S(b1-4)]GlcNAc
# Summary of the method: as §1
# [26] = target: Fuc(a1-3)[Gal3S(b1-4)]GlcNAc6S
# Summary of the method: as §1
# [27] = target: Fuc(a1-3)[GalNAc(b1-4)]GlcNAc
# Summary of the method: as §1
# [28] = target: Fuc(a1-4)GlcNAc
# Summary of the method: as §1
# [29] = target: Fuc(b1-3)GlcNAc
# Summary of the method: as §1
# [30] = target: Gal(a1-2)Gal
# Summary of the method: as §1
# [31] = target: Gal(a1-3)Gal
# Summary of the method: as §1
# [32] = target: Gal(a1-3)Gal(b1-3)GlcNAc
# Summary of the method: as §1
# [33] = target: Gal(a1-3)Gal(b1-3)GlcNAc(b1-2)Man
# Summary of the method: as §1
# [34] = target: Gal(a1-3)Gal(b1-3)GlcNAc(b1-2)Man(a1-3)[Gal(a1-3)Gal(b1-3)GlcNAc(b1-2)Man(a1-6)]Man(b1-4)GlcNAc(b1-4)GlcNAc
# Summary of the method: as §1
# [35] = target: Gal(a1-3)Gal(b1-3)GlcNAc(b1-3)GalNAc
# Summary of the method: as §1
# [36] = target: Gal(a1-3)Gal(b1-3)GlcNAc(b1-6)GalNAc
# Summary of the method: as §1
# [37] = target: Gal(a1-3)Gal(b1-4)Glc
# Summary of the method: as §1
binder,measurement,setting,value
B1,glycan array binding signal (z-score),[1],0.104
same,glycan array binding signal (z-score),[2],-0.245
same,glycan array binding signal (z-score),[3],-0.267
same,glycan array binding signal (z-score),[4],-0.189
same,glycan array binding signal (z-score),[5],0.134
same,glycan array binding signal (z-score),[6],-0.298
same,glycan array binding signal (z-score),[7],0.339
same,glycan array binding signal (z-score),[8],-0.051
same,glycan array binding signal (z-score),[9],0.703
same,glycan array binding signal (z-score),[10],-0.226
same,glycan array binding signal (z-score),[11],-0.406
same,glycan array binding signal (z-score),[12],-0.313
same,glycan array binding signal (z-score),[13],-0.067
same,glycan array binding signal (z-score),[14],0.093
same,glycan array binding signal (z-score),[15],-0.233
same,glycan array binding signal (z-score),[16],-0.335
same,glycan array binding signal (z-score),[17],-0.246
same,glycan array binding signal (z-score),[18],-0.235
same,glycan array binding signal (z-score),[19],-0.349
same,glycan array binding signal (z-score),[20],0.598
same,glycan array binding signal (z-score),[21],-0.138
same,glycan array binding signal (z-score),[22],-0.242
same,glycan array binding signal (z-score),[23],-0.036
same,glycan array binding signal (z-score),[24],-0.309
same,glycan array binding signal (z-score),[25],-0.041
same,glycan array binding signal (z-score),[26],-0.239
same,glycan array binding signal (z-score),[27],-0.125
same,glycan array binding signal (z-score),[28],0.031
same,glycan array binding signal (z-score),[29],-0.335
same,glycan array binding signal (z-score),[30],-0.237
same,glycan array binding signal (z-score),[31],-0.29
same,glycan array binding signal (z-score),[32],-0.132
same,glycan array binding signal (z-score),[33],-0.164
same,glycan array binding signal (z-score),[34],1.43
same,glycan array binding signal (z-score),[35],-0.037
same,glycan array binding signal (z-score),[36],-0.232
same,glycan array binding signal (z-score),[37],-0.208

# Some of the entries so far, with tabs:
binder	measurement	setting	value
B1	glycan array binding signal (z-score)	[3]	-0.267
same	glycan array binding signal (z-score)	[13]	-0.067
same	glycan array binding signal (z-score)	[14]	0.093
same	glycan array binding signal (z-score)	[16]	-0.335
same	glycan array binding signal (z-score)	[18]	-0.235
same	glycan array binding signal (z-score)	[23]	-0.036
same	glycan array binding signal (z-score)	[30]	-0.237
same	glycan array binding signal (z-score)	[36]	-0.232

# From the supplement of paper PMC8728848
